At least one structure is not confirmed: it was looked up by name or label, or the drawing left a doubt.
Legend:
Assay type in all cases: cell-based, human
Mia PACA-2 cells = test: Annexin staining (flow cytometry); conditions: Mia PACA-2, 72 hours, 0-100 μM, no serum
Description: BSp73AS cells are derived from a rat pancreatic carcinoma and both Mia PACA-2 and BSp73AS cells have mutated p53 and express K-ras. Human pancreatic carcinoma cell line Mia PACA-2 and rat pancreatic carcinoma BSp73AS were cultured in Dulbecco's Modified Eagle's Medium supplemented with 10% heat inactivated FBS, penicillin G (100 U/ml) and streptomycin ([…]) in a humidified atmosphere comprising 5% (v/v) CO2. When cells were 90% confluent they were detached, washed with alternating centrifugation and resuspension, plated and incubated in the same media without FBS and with the indicated concentrations of polyphenolic compounds or vehicle for up to 96 hours. Oligonucleotide DNA fragmentation, annexin staining, and PARP proteolysis assays were conducted as follows:
Mia PACA-2 cells were cultured for 72 hours in the presence of 0, 12, 24, 50, and 100 μM rutin, quercetin, or trans-resveratrol. About 1×10^6 cells as determined with a hemocytometer were analyzed for annexin-V binding using an Annexin V-FLUOS Staining Kit (Boehringer Mannheim, Germany). […] Cells were analyzed on a FACScan flow cytometer (Becton Dickinson Immunocytometry System, San Jose, Calif.) equipped with a […] air-cooled 488 nm argon-ion laser. […]

PARP = PARP proteolysis (Western blot); conditions: Mia PACA-2, 24 hours, 100 μM
Description: BSp73AS cells were cultured for 6 hours and Mia PACA-2 cells were cultured for 24 hours in the presence or absence of 100 μM of each rutin, quercetin or trans-resveratrol and with or without 50 μM of each […]. The cells were washed twice with PBS and lysed by incubating for 20 minutes at 4° C. in lysis buffer comprising 0.15 M NaCl, 50 mM Tris (pH 7.2), 1% deoxycholic acid (wt/vol), 1% Triton X-100 (wt/vol), 0.1% […] (wt/vol) and 1 mM PMSF, as well as 5 μg/ml each of protease inhibitors, pepstatin, leupeptin, chymostatin, antipain, and aprotinin. Then the cell lysates were centrifuged for 20 minutes at 15,000 g at 4° C. The supernatants were separated by 4-20% SDS-PAGE for 2 hours at 120 V using precast Tris-glycine gels and a Mini-Cell gel apparatus (Novex, San Diego, Calif.). Separated proteins were electrophoretically transferred to a nitrocellulose membrane for 2 hours at 30 V using a Novex Blot Module (Novex, San Diego, Calif.). Nonspecific binding was blocked by 1 hour incubation of nitrocellulose membranes in 5% (wt/vol) nonfat dry milk in Tris-buffered saline (TBS; pH 7.5). […] When processing of a protein was measured, a decrease in unprocessed full-length form was measured concomitantly with the increase in the cleaved, active form. […]

NF-κB = NF-κB DNA binding activity (EMSA / gel shift); conditions: Mia PACA-2, 24 hours, no serum; polyphenols 100 μM, MG-132 20 μM
Description: In order to determine the role of activated NF-κB in the regulation of apoptosis caused by the polyphenolic compound, the following assay was conducted. BSp73AS cells were cultured for 6 hours and Mia PACA-2 cells were cultured in the absence of serum or growth factors for 24 hours in the absence (controls) or presence of rutin, quercetin, trans-resveratrol, or genistein, each at 100 μM and 20 μM proteosome inhibitor MG-132. Nuclear proteins were isolated and analyzed for NF-κB DNA binding activity with electrophoretic mobility shift assay (EMSA). […]
containing the κB binding motif (underlined) was annealed to the complementary oligonucleotide with a 5′-G overhang and end-labeled using Klenow DNA polymerase I. The samples were electrophoresed at room temperature in 0.5×TBE buffer (1×TBE 89 mM Tris base, 89 mM boric acid and 2 mM EDTA) on nondenaturing 4.5% polyacrylamide gel at 200 V. Gels were dried and directly analyzed in the PhosphorImager (Molecular Dynamics, Sunnyvale, Calif.). […]
To study the effects of combinations of DPI and polyphenolic compounds on serum-induced activation of NF-κB and protection from apoptosis, the following assay was conducted. […] NF-κB binding activity was measured in nuclear extracts by gel shift assay as described above. […]

C[C@@H]1O[C@@H](OC[C@H]2O[C@@H](Oc3c(-c4ccc(O)c(O)c4)oc4cc(O)cc(O)c4c3=O)[C@H](O)[C@@H](O)[C@@H]2O)[C@H](O)[C@H](O)[C@H]1O [rutin]
not: annexin staining (apoptosis) (Mia PACA-2 cells) | PARP cleavage (PARP) | NF-κB activation (DNA binding) (NF-κB)
